From PMC7817835
Like-named read-outs stand apart in the source and are kept apart here. These are yes or no findings as the source states them, for the method shown. Some binding calls cover weakened binding; strength is not graded here. Values belong to the molecule of their own block, whether it stands above or below them.

Chains of the proteins cited; added tags and fusions are not shown.
UniProt Q39575: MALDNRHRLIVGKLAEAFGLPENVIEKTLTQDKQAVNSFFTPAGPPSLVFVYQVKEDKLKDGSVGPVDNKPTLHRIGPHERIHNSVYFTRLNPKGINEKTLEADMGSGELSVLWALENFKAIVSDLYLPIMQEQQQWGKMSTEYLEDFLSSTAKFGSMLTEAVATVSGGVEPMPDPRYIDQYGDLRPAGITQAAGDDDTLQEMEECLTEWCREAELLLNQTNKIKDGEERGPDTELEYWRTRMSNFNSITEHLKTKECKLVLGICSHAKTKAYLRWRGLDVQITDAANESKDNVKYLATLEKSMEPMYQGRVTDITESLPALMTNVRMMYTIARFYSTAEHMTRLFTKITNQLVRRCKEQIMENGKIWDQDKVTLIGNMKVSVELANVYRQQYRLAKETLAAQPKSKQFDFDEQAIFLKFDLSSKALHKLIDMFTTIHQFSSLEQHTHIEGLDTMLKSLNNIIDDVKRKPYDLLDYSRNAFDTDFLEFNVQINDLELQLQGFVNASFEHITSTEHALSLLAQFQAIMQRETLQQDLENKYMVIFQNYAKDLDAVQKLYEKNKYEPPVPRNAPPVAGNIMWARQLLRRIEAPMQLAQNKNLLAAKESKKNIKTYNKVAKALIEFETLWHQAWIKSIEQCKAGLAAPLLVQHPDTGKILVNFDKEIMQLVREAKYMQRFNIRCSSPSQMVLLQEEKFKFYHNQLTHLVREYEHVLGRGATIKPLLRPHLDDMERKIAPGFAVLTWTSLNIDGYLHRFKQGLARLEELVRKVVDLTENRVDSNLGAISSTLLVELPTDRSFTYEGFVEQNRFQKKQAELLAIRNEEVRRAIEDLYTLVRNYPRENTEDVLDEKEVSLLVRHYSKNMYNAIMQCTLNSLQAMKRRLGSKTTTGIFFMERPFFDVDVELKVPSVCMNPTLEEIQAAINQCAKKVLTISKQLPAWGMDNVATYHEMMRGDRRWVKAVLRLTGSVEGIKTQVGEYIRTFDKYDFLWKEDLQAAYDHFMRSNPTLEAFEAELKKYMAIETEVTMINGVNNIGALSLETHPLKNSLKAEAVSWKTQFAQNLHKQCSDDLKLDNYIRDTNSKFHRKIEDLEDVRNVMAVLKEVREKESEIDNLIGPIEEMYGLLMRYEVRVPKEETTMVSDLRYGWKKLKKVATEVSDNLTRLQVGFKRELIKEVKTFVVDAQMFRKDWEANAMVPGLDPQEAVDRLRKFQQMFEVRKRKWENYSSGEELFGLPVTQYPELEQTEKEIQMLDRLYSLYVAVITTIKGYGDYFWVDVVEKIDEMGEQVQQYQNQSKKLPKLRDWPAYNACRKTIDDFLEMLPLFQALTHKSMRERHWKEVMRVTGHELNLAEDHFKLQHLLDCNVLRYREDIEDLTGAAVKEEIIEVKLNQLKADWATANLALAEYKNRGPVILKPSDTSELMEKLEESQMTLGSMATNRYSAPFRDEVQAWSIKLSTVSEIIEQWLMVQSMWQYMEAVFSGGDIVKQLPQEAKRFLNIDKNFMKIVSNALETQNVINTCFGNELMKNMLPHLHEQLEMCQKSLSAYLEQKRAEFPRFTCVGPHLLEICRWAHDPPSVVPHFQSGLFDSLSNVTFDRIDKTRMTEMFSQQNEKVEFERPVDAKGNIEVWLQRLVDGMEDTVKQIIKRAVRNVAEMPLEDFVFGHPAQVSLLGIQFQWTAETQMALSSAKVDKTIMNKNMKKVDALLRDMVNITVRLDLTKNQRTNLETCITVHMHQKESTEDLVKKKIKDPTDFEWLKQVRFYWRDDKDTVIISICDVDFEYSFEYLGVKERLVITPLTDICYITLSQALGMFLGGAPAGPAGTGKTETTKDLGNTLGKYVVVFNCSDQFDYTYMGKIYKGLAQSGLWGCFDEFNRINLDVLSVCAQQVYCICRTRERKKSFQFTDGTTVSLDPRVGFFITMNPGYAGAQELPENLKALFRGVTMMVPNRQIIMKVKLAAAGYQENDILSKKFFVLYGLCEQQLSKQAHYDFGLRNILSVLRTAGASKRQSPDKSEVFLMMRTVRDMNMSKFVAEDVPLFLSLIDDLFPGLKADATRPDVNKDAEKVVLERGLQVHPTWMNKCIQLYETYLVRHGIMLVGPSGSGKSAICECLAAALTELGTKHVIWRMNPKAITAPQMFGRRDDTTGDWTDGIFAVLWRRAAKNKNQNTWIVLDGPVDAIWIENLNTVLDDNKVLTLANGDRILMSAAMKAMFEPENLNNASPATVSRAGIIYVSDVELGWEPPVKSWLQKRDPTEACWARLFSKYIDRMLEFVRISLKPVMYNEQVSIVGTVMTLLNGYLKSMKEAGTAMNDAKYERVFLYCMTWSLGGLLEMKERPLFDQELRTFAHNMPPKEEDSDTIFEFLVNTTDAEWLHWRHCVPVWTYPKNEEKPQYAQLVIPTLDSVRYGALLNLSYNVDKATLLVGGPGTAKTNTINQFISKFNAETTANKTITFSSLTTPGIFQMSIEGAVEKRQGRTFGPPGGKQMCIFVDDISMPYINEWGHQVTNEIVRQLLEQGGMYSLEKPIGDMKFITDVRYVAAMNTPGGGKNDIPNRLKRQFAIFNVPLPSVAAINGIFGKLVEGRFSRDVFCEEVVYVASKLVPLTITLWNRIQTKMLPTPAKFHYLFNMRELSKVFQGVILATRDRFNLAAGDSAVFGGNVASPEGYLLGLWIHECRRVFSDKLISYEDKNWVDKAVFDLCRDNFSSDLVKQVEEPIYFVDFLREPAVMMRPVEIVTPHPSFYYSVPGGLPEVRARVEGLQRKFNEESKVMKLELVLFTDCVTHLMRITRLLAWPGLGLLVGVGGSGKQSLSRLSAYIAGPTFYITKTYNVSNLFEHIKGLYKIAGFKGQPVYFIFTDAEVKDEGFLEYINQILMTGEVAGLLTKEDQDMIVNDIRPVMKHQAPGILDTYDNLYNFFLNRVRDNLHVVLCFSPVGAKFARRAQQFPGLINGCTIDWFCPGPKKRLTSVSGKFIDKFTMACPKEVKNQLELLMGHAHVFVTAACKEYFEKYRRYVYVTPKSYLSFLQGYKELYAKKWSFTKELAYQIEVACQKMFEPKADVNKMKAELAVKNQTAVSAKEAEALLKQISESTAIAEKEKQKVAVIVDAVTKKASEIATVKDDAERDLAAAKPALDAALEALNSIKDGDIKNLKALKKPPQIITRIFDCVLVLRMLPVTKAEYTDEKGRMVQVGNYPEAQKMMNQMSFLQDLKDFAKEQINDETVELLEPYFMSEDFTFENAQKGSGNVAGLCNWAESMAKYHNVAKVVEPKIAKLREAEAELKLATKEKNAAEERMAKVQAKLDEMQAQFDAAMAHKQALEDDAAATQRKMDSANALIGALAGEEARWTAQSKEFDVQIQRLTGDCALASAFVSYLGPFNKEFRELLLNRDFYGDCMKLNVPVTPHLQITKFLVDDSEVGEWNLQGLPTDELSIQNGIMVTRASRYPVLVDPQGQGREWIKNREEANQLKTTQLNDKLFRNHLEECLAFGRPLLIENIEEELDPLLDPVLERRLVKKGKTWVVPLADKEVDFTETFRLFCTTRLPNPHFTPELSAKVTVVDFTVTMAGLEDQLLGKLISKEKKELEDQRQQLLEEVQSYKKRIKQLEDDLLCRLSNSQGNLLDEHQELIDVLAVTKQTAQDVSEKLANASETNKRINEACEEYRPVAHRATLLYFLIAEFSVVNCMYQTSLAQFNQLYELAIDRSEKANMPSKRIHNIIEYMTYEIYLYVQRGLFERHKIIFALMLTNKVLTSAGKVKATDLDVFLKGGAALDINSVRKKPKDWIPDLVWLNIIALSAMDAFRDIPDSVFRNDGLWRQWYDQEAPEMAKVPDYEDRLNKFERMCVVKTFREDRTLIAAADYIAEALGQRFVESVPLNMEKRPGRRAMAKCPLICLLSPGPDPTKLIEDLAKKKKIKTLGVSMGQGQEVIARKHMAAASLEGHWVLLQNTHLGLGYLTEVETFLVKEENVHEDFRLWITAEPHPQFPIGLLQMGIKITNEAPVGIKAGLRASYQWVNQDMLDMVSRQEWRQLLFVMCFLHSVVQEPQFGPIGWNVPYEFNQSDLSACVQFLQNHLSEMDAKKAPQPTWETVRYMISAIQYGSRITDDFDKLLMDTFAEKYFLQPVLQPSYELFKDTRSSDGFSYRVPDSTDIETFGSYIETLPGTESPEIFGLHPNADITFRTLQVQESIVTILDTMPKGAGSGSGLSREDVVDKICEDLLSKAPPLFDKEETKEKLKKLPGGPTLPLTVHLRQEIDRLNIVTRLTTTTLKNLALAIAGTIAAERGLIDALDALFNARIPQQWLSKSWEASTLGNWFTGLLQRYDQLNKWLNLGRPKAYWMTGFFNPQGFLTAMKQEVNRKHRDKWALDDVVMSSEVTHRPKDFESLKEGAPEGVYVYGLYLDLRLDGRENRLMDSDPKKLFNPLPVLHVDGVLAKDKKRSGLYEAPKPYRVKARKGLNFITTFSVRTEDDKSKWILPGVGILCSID
UniProt O04387: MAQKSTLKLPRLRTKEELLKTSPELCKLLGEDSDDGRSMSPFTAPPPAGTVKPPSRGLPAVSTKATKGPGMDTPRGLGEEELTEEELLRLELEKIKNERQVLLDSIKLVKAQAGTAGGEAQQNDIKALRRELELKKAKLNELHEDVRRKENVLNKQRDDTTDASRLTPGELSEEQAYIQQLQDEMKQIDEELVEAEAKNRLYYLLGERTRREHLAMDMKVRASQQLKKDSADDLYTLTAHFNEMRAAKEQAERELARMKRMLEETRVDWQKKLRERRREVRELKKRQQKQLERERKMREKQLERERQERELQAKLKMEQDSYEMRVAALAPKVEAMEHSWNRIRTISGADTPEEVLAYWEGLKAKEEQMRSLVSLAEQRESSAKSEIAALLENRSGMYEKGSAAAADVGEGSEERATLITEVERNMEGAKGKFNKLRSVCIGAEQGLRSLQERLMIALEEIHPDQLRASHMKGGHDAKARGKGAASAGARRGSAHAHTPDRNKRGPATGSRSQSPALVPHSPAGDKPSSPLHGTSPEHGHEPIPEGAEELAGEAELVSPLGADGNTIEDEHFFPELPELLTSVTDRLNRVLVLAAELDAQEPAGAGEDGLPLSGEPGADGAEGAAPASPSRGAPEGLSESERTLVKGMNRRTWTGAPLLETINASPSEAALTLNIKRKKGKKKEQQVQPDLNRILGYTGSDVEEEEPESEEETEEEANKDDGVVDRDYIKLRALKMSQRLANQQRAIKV

Assays:
Experiment in all cases: cryo-EM structure; single-particle cryo-EM of the native ODA on doublet microtubules of splayed C. reinhardtii axonemes (splayed with 10 mM Mg-ATP and 750 μM CaCl2 in HMDEKP; 250 μM free Ca2+); apo, post-powerstroke state
[1] = target: outer dynein arm heavy chain β-HC (Chlamydomonas reinhardtii (endogenous in flagella, strain CC-1690)) (UniProt Q39565)
[2] = target: outer dynein arm heavy chain γ-HC (Chlamydomonas reinhardtii (endogenous in flagella, strain CC-1690)) (UniProt Q39575)
[3] = target: ODA docking complex subunit DC1 (Chlamydomonas reinhardtii (endogenous in flagella, strain CC-1690)) (UniProt O04387)
[4] = target: outer dynein arm heavy chain γ-HC (Chlamydomonas reinhardtii (endogenous in flagella, strain CC-1690)) (UniProt Q39575); remark: listed apart in the source
[5] = target: outer dynein arm heavy chain β-HC (Chlamydomonas reinhardtii (endogenous in flagella, strain CC-1690)) (UniProt Q39565); remark: listed apart in the source

binding [1]: binds
Molecule: outer dynein arm heavy chain α-HC (from UniProt Q39610 1-4499)

binding [1]: binds | binding [2]: binds
Molecule: ODA docking complex subunit DC1 (from UniProt O04387 1-749)

binding [2]: binds
Molecule: outer dynein arm heavy chain γ-HC (from UniProt Q39575 1-4485)

binding [1]: binds | binding [2]: binds
Molecule: outer dynein arm heavy chain β-HC (from UniProt Q39565 1-4568)

binding [3]: binds | binding [4]: binds
B1: ODA docking complex subunit DC3 (calcium-binding) (protein, UniProt Q7Y0H2 1-184)
chain: MASAAARERYARKNEQNELERAFNTIDSKGDKKIDAEELTELFLRLGHKPKRGEVEDMIWEVDEDCDGCISLLEFQTLYTRCRDDKTGYEPRGLFNVVEFVMNDKNNQGFITLEEAMQIMYLRYGRAELDMQLEQVFGTADLNSGKILTLTEFLHCLHTNQVKQLLNRVTAKTYKAPPPPQKRK

binding [5]: binds | binding [4]: binds
B2: outer dynein arm intermediate chain IC1 (protein, UniProt Q39578 1-683)
chain: MPALSPAKKGTDKGKTGKKTGKQEQNAQDYIPPPPPMPGDEAFAMPIREIVKPDNQLWLSEADLNEEVAKMLTANNPAAPKNIVRFNMKDKVFKLEPMVEQTVVHYATDGWLLHKSSDEAKRQMDMEKMEQEASARFQADIDRASHEHKDHGDVEPPDDSRQLRNQFNFSERAAQTLNYPLRDRETFTEPPPTATVSGACTQWEIYDEYIKDLERQRIDEAMKSKGGKKAAAAARAAGAAHRQRNEHVPTLQSPTLMHSLGTLDRMVNQNMYEEVAMDFKYWDDASDAFRPGEGSLLPLWRFVSDKSKRRQVTSVCWNPLYDDMFAVGYGSYEFLKQASGLINIYSLKNPSHPEYTFHTESGVMCVHFHPEFANLLAVGCYDGSVLVYDVRLKKDEPIYQASVRTGKLNDPVWQIYWQPDDAQKSLQFVSISSDGAVNLWTLTKSELIPECLMKLRVVRAGETREEEDPNASGAAGGCCMDFCKMPGQESIYLVGTEEGAIHRCSKAYSSQYLSTYVSHHLAVYAVHWNNIHPSMFLSASCRLDHQAVGLCHDPKRAVMNFDLNDSIGDVSWAALQPTVFAAVTDDGRVHVFDLAQNKLLPLCSQKVVKKAKLTKLVFNPKHPIVLVGDDKGCVTSLKLSPNLRITSKPEKGQKFEDLEVAKLDGVVEIARKSDADLAKNAAH

binding [5]: binds
B3: outer dynein arm intermediate chain IC2 (protein, UniProt P27766 1-567)
chain: MEIYHQYIKLRKQFGRFPKFGDEGSEMLADIRPNEDHGKEYIPRNPVTTVTQCVPEMSEHEANTNAVILVNKAMSHVEGGWPKDVDYTEAEHTIRYRKKVEKDEDYIRTVVQLGSSVEDLIKQNNAVDIYQEYFTNVTMDHTSEAPHVKTVTVFKDPNNIKRSASYVNWHPDGSVPKVVVAYSILQFQQQPAGMPLSSYIWDVNNPNTPEYEMVPTSQICCAKFNLKDNNLVGAGQYNGQLAYFDVRKGNGPVEATPIDISHRDPIYDFAWLQSKTGTECMTVSTDGNVLWWDLRKMNECVENMPLKEKNSETTVGGVCLEYDTNAGPTNFMVGTEQGQIFSCNRKAKNPVDRVKYVLSGHHGPIYGLRRNPFNSKYFLSIGDWTARVWVEDTAVKTPILTTKYHPTYLTGGTWSPSRPGVFFTIKMDGAMDVWDLYYKHNEPTLTVQVSDLALTAFAVQESGGTVAVGTSDGCTSVLQLSTGLSEASPAEKANINAMFERETTREKNLEKAIKEAKVKARKEQGRRDEVKDNVTEEQLKALEDEFFKTTDPAVGGGYGAGEGAAAE
